Reference: patent US11457628B2, “Substituted pyrimidine compound and preparation method and use thereof” (SHENYANG SINOCHEM AGROCHEMICALS R&D CO., LTD., priority 2017, dated 2022)
Read-outs that look alike come from different tables or passages of the source. Some of these results come from one statement about several compounds together.

Assays:
[1] = tested on: corn rust; experiment: in vivo protective activity, pot determination, corn rust
[2] = tested on: wheat powdery mildew; experiment: in vivo protective activity, pot determination, wheat powdery mildew
[3] = tested on: cucumber downy mildew; experiment: in vivo protective activity, pot determination, cucumber downy mildew
[4] = tested on: Tetranychus cinnabarinus; experiment: activity against Tetranychus cinnabarinus, airbrush spray method; conditions: after 72 hours
[5] = tested on: green peach aphid; experiment: activity against the green peach aphid, airbrush spray method; format: in vivo; conditions: after 48 hours
[6] = tested on: rice blast; format: cell-based; conditions: in vitro, 24 hours

Cc1ccc(-c2c(C)c(OCCNc3ncnc(C(F)F)c3Cl)nn2C)cc1 [Compound 12-1-57]
more than 80%: protective effect for control of corn rust ([1]; dose 100 ppm) | protective effect for control of corn rust ([1]; dose 400 ppm) | protective effect for control of wheat powdery mildew ([2]; dose 100 ppm) | protective effect for control of wheat powdery mildew ([2]; dose 400 ppm) | protective effect for cucumber downy mildew ([3]; dose 25 ppm) | protective effect for cucumber downy mildew ([3]; dose 100 ppm) | protective effect for cucumber downy mildew ([3]; dose 400 ppm) | lethality for the Tetranychus cinnabarinus ([4]; dose 10 ppm) | lethality for the Tetranychus cinnabarinus ([4]; dose 100 ppm) | lethality for the Tetranychus cinnabarinus ([4]; dose 600 ppm) | lethality for the green peach aphid ([5]; dose 100 ppm) | lethality for the green peach aphid ([5]; dose 600 ppm) | inhibition activity for rice blast ([6]; dose 25 ppm)

Cc1c(OCCNc2ncnc(C(F)F)c2Cl)nn(C)c1-c1ccc(Cl)cc1 [Compound 12-1-19]
more than 80%: protective effect for control of corn rust ([1]; dose 6.25 ppm) | protective effect for control of corn rust ([1]; dose 25 ppm) | protective effect for control of corn rust ([1]; dose 100 ppm) | protective effect for control of corn rust ([1]; dose 400 ppm) | protective effect for control of wheat powdery mildew ([2]; dose 25 ppm) | protective effect for control of wheat powdery mildew ([2]; dose 100 ppm) | protective effect for control of wheat powdery mildew ([2]; dose 400 ppm) | protective effect for cucumber downy mildew ([3]; dose 6.25 ppm) | protective effect for cucumber downy mildew ([3]; dose 25 ppm) | protective effect for cucumber downy mildew ([3]; dose 100 ppm) | protective effect for cucumber downy mildew ([3]; dose 400 ppm) | lethality for the Tetranychus cinnabarinus ([4]; dose 10 ppm) | lethality for the Tetranychus cinnabarinus ([4]; dose 100 ppm) | lethality for the Tetranychus cinnabarinus ([4]; dose 600 ppm) | lethality for the green peach aphid ([5]; dose 600 ppm) | inhibition activity for rice blast ([6]; dose 2.8 ppm) | inhibition activity for rice blast ([6]; dose 8.3 ppm) | inhibition activity for rice blast ([6]; dose 25 ppm)
